In experiment [1] the target is T1, SlGASA1 fused to the GAL4 DNA-binding domain (tomato (Solanum lycopersicum)) (UniProt P27057).
T1 sequence: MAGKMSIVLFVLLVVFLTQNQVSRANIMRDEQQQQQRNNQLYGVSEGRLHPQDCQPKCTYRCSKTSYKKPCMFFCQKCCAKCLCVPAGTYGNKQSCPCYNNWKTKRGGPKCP
Nature of the experiment: two-hybrid; SlGASA1 on the GAL4 DNA-binding domain (pGBKT7) as bait, ripening regulators on the GAL4 activation domain (pGADT7) as preys; yeast AH109; growth on SD-Leu-Trp-His-Ade.

Experiment [2] concerns the target FUL1-FLAG (tomato (Solanum lycopersicum)). Nature of the experiment: co-IP; co-expression in N. benthamiana leaves by Agrobacterium infiltration; total proteins incubated with anti-FLAG M2 magnetic beads 12-16 h at 4°C; immunoblot with anti-HA and anti-FLAG. (In general: In western blotting, separated proteins are transferred to a membrane and probed.)
The target in experiment [3] is GST-FUL1 (tomato (Solanum lycopersicum)). Nature of the experiment: DNA pull-down; purified SlGASA1-HIS incubated overnight with 1.0 μg biotin-labeled ACS2 or ACO1 promoter probe and GST or GST-FUL1 in HKMG buffer (100 mM KCl, 10 mM HEPES, 5 mM MgCl2, 1 mM DTT, 10% glycerol, 0.5% NP-40, pH 7.9); streptavidin-agarose beads; immunoblot with anti-GST and anti-HIS; both purified.

Results are given in words; binding and its absence hold for the method and conditions named. A result given as binding can be weak or reduced; the word gives no strength. Tags and fused reporters may be left off the sequences shown. For part of these data: In cells and extracts the contact can be indirect.

For “FRUITFULL1 fused to the GAL4 activation domain (tomato (Solanum lycopersicum))”, in experiment [1], the binding result was “binds”.

As for “APETALA2a fused to the GAL4 activation domain (tomato (Solanum lycopersicum))”, the binding entry in experiment [1] is given as “no binding”. Still for that read-out and setting: as for “RIPENING INHIBITOR fused to the GAL4 activation domain (tomato (Solanum lycopersicum))”, the entry is “no binding”. Same read-out and setting: to “NON-RIPENING fused to the GAL4 activation domain (tomato (Solanum lycopersicum))” belongs “no binding”.

B1: SlGASA1-HA (protein, UniProt P27057 26-112)
chain: NIMRDEQQQQQRNNQLYGVSEGRLHPQDCQPKCTYRCSKTSYKKPCMFFCQKCCAKCLCVPAGTYGNKQSCPCYNNWKTKRGGPKCP
For B1, the binding result in experiment [2] is listed as “binds”.

B2: SlGASA1-HIS (protein, UniProt P27057 26-112)
chain: NIMRDEQQQQQRNNQLYGVSEGRLHPQDCQPKCTYRCSKTSYKKPCMFFCQKCCAKCLCVPAGTYGNKQSCPCYNNWKTKRGGPKCP
As to B2, in experiment [3], the binding entry was “binds”.

The record behind these values is paper PMC9832878.
